Primary screen of a compound library

From ChEMBL document CHEMBL3988442, “University of Dundee, Small-Polar-MMV Screening Library” (2021).

A: 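Whole-parasite assay of Trypanosoma brucei over 72 hours; the read-out is not stated. Compounds at 30 µM. Higher reads as stronger inhibition (inferred: compounds with an IC50 in retests scored well above the rest). Values scatter widely below zero; nearly all retest evidence comes from the higher of the two concentrations used. Of about 64,000 compounds tested this way, about 940 (1.5%) reached 50% or more in at least one test.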
B: 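Assay of Toxoplasma gondii numbers, read through their beta-galactosidase reporter with a colour substrate. Compounds at 10 µM. The record gives no direction; the compounds picked for IC50 retests had high values, so higher reads as fewer parasites. Of about 67,000 compounds tested this way, about 260 (0.38%) reached 50% or more in at least one test.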

Values are the deposited “Percent Effect”, in %.
How 0% and 100% were set is not recorded. Most values in the screen are low, and negative values occur.
The compounds are a random part of those screened.
A dash means the value is not listed here; it may have been measured.

compound | A | B
CCOC(=O)NC(C(=O)NCc1ccc(N2CCCCC2)nc1)C(C)C (centres undefined) | -0.8738 | 0.5169
CCn1cnnc1CNC(=O)N(C)C(C)c1cccs1 (centres undefined) | 8.526 | -20.6
O=C(c1ccsc1)N1CCc2c(CNc3nccs3)n[nH]c2C1 | -12.13 | -1.108
Cc1noc(C)c1CNC(=O)c1cn(CCC2CCCCN2)nn1 (centres undefined) | -3.963 | 1.786
CCCC(C)(C)NC(=O)c1cnc(C)s1 | -54.85 | 8.775
CC(C)NC(=O)C1CN(C(=O)Nc2cccc(F)c2)CC12CCOCC2 (centres undefined) | 40.88 | -4.765
Cc1cc(C)n(C2CN(CC(O)c3ccc4c(c3)OCO4)C2)n1 (centres undefined) | 40.45 | -3.282
OCCN1CCC(CNCCOCC(F)(F)F)CC1 | -27.15 | -2.144
CNc1cc(N2CCCC2CNCc2cccnc2)ncn1 (centres undefined) | -22.66 | 16.67
Cc1cc(C(F)(F)F)nc(CCNc2nc(C)nc3c2cnn3C)n1 | 9.117 | -38.8
CNc1cc(N2CCCC2CNCc2c[nH]nc2C(C)(C)C)ncn1 (centres undefined) | -23.97 | -10.19
Cc1ccc(-c2cc(CNC(=O)N3CCCN(C)CC3)on2)cc1 | 2.556 | -3.478
COCC1CN(S(=O)(=O)N(C)C)Cc2cnn(CC3CCCC3)c21.O=C(O)C(F)(F)F (centres undefined) | -20.34 | 1.958
CC(C)(N)c1nc(C(F)F)cc(=O)[nH]1.Cl | -17.56 | 20.22
COc1ccc(NCc2ccccc2N2CCN(C(C)=O)CC2)cn1 | 5.736 | 2.952
CNC(=O)CCc1cc(C2CCCN2S(C)(=O)=O)nc(C)n1 (centres undefined) | -6.223 | -11.53
O=C(CCN1CCSCC1c1ccccc1)N1CCOCC1 (centres undefined) | -38.24 | -10.22
CCN(CC)S(=O)(=O)c1ccc2c(c1)N(Cc1ccncc1)C(=O)CS2 | -4.416 | -10.51
CC(=O)N1CCC(N2CCN(Cc3ccc(C)o3)C(CCO)C2)CC1 (centres undefined) | 9.988 | -3.885
CCN(CC)CCCNCc1cc2cccc(C)c2[nH]c1=O | -3.275 | 4.014
O=C(O)C(F)(F)F.O=C(O)C(F)(F)F.c1csc(CN2CCOCC3(CCN(C4CCOCC4)C3)C2)n1 (centres undefined) | 7.785 | -2.439
O=C(Cn1ccc(-c2ccccc2)n1)N1CCN(C(=O)C2CC2)CC1 | 4.769 | -13.99
CCC(Nc1nnnn1-c1ccccc1)C(=O)NC1CCSCC1 (centres undefined) | -25.42 | 0.2817
CCOCc1cccc(NCc2c[nH]nc2-c2cccnc2)c1 | 6.858 | 3.308
COCC(NC(=O)NCc1cccc(C#N)c1)c1ccco1 (centres undefined) | -7.884 | -2.434
CC(=O)N1CCCC(c2ccc(CO)c(-c3c(C)noc3C)n2)C1 (centres undefined) | -7.768 | -19.38
COc1ccc(-n2nc(C(C)C)nc2COC(C)C)cc1 | -4.766 | -16.21
CC(=O)NCc1cc2n(n1)CCN(Cc1cc(-c3ccccc3)no1)C2 | -17.63 | -17.65
CCc1cc(N2CCC(NCCc3ccc(C)o3)CC2)nc(C)n1 | -24.69 | 5.099
COc1cccc(CC2CCCN2Cc2nccn2C)c1 (centres undefined) | 3.1 | -3.377
Cc1cccc(NC(=O)C2CSc3ncc(C)c(=O)n3C2)n1 (centres undefined) | -12.62 | -4.178
O=C(NCc1nnc2n1CCCCC2)N1CCc2ccccc2C1 | - | 2.705
OC1(CN2CCCC2)COCCN(c2nnc(-c3ccccc3)s2)C1 (centres undefined) | -38.29 | 8.511
CN1CCN(Cc2ccc(-c3ccc(-c4ccn[nH]4)cc3)nc2)CC1 | 31.8 | 14.53
O=C(CC1CCCC1)NCCS(=O)(=O)N1CCN(c2ncccn2)CC1 | -12.97 | -16.33
CC(C)Oc1ccc(CSc2nnc(CN3CCCC3=O)o2)cc1 | 72.7 | -0.1101
CC(NC(=O)c1cccs1)C(=O)NCc1ccccc1CN1CCCC1 (centres undefined) | 30.37 | 4.659
CCOC1COC2(CCN(Cc3cccc(C)n3)CC2)C1.O=C(O)C(F)(F)F (centres undefined) | -47.93 | 18.97
Cc1noc(CN2CCN(Cc3cccs3)CC2)n1 | -15.57 | 1.482
COc1ccc(NC(=O)NCCCn2nc3ccccn3c2=O)cc1 | -10.2 | 10.22
NC(=O)c1cnc(NCC(=O)NCc2ccccc2)c(Cl)c1 | -74.22 | 5.871
c1cc2c(cc1CN(Cc1nc(C3CC3)no1)C1CCCC1)OCO2 | 3.053 | -36.73
[H][C@@]12C[C@H](C)O[C@@]1([H])CCN(C(=O)CCOC)C2 | 24.81 | 1.165
CCN1CCN(Cc2c(C3CCCC3)[nH]c3ncccc23)CC1 | -5.515 | 17.45
Cc1oncc1C(=O)N1CCC2(CCN(Cc3ccccn3)C2=O)C1 (centres undefined) | -72.09 | 14.09
Cc1cc(C(=O)N2CCCCC2)ccc1NS(C)(=O)=O | -25.96 | -0.9732
O=C1CC(c2ccc3c(c2)OCO3)c2snc(C(=O)O)c2N1 (centres undefined) | -27.73 | 2.222
COc1ccccc1CN(Cc1cccnc1)Cc1c[nH]c(C)n1 | -37.17 | -0.8646
CC(C)c1cnc(CN(C)C2CCN(CCS(C)(=O)=O)C2)o1 (centres undefined) | - | 8.6
N#Cc1ccc(N2CCCN(CC(=O)N3CCNC(=O)C3)CC2)cc1 | 10.5 | -8.043
CC(=O)c1cccc(NC(=O)CCn2nc(-c3cccs3)oc2=O)c1 | -0.6044 | -3.432
Cc1nn(C)c(C)c1C1CCCN1CC(=O)Nc1nccs1 (centres undefined) | -4.403 | 8.369
[H][C@@]12COC[C@]1(c1nc(C)no1)CN(S(=O)(=O)N(C)C)C2 | -17.4 | 15.12
CC(C)c1cc(C(=O)N2CCCC(c3cc(=O)nc4n3CCC4)C2)no1 (centres undefined) | -18.22 | -12.38
CSCCC(CO)NC(=O)c1sc(-c2ccccc2Cl)nc1C (centres undefined) | 44.9 | -4.662
CCn1c(CC2CCN(C(=O)C3CCOC3)CC2)nn(C)c1=O (centres undefined) | -17.01 | 5.81
CO[C@@H]1CCN(Cc2ccc(C)o2)[C@H]1Cc1ccccc1.O=C(O)C(F)(F)F | -31.73 | 5.448
[H][C@]12CC[C@@]3(N=C(C)NC3=O)[C@@]1([H])CN(C(=O)NCc1cccc(F)c1)C2 | -35.8 | -9.824
CN(CC(O)CO)C(=O)c1coc(COc2cccc(F)c2)n1 (centres undefined) | -174.5 | -8.171
[H][C@]12CCN(C(=O)c3cc(C)oc3C)C[C@@]1([H])OCCN(S(C)(=O)=O)C2 | - | 3.174
CC(C)(C)OC(=O)NC1CCCN(Cc2cccc(O)c2)C1 (centres undefined) | - | -9.98
CS(=O)(=O)N1CCc2[nH]cnc2C12CCN(C(=O)c1ccc[nH]1)CC2 | -48.89 | 19.36
CCN1CCN(CC(O)c2ccc(OC(F)(F)F)cc2)CC1 (centres undefined) | 13.84 | 9.592
Cn1cc(CN2CCC(c3ncc(Cl)cc3S(C)(=O)=O)CC2)cn1 | -17.74 | 12.58
Cc1ccc(CN2CCn3c(C(=O)N(C)C)cnc3C2)s1.O=C(O)C(F)(F)F | -2.366 | 0.4992
CC(=O)N1CCN(c2cncc(C3CCNCC3)n2)CC1.Cl | -47.2 | -17.46

4 of the entries, repeated:

* COCC(NC(=O)NCc1cccc(C#N)c1)c1ccco1 (centres undefined) | A: -7.884%; B: -2.434%
* COc1cccc(CC2CCCN2Cc2nccn2C)c1 (centres undefined) | A: 3.1%; B: -3.377%
* CC(C)c1cc(C(=O)N2CCCC(c3cc(=O)nc4n3CCC4)C2)no1 (centres undefined) | A: -18.22%; B: -12.38%
* COc1ccc(-n2nc(C(C)C)nc2COC(C)C)cc1 | A: -4.766%; B: -16.21%